The target in the assay is kelch-like ECH-associated protein 1 (human (endogenous in A2780 and A2780/DDP)) (UniProt Q14145). Briefly: co-IP; endogenous proteins; A2780 or A2780/DDP cells lysed in Pierce IP buffer with protease and phosphatase inhibitors; lysates probed overnight at 4 °C with rabbit anti-KEAP1 (IgG as control), protein G beads, Western blot. Background: In western blotting, separated proteins are transferred to a membrane and probed.

Amino acid sequences for entries named in this document (tags omitted).
UniProt Q14145: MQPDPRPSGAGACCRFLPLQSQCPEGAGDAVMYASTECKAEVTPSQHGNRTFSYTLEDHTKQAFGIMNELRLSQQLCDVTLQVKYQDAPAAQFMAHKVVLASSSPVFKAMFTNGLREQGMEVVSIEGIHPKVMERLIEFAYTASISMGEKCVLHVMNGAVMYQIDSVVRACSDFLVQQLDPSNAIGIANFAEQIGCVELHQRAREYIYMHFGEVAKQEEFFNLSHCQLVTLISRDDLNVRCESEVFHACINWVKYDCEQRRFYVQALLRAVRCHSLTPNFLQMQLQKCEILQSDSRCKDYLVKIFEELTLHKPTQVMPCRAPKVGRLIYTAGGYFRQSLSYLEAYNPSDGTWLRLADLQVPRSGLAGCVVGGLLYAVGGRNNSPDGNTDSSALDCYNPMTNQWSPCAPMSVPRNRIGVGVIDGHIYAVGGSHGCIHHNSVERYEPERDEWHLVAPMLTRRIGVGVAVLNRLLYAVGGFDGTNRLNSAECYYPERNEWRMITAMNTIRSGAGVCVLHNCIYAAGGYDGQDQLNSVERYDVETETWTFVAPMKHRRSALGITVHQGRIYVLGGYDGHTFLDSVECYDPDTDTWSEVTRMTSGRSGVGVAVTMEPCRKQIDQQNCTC

1 molecule from paper PMC8651739 can be followed below.

No constants are given. Whether binding was seen depends on the method and setting. Binding seen in cells or lysates may run through a third protein. Some entries that bind do so weakly or less than the wild type. Where a sequence is shown, tags or fusion partners need not be part of it.

B1: O-linked N-acetylglucosamine (GlcNAc) transferase (enzyme, UniProt O15294 1-1046)
chain: MASSVGNVADSTEPTKRMLSFQGLAELAHREYQAGDFEAAERHCMQLWRQEPDNTGVLLLLSSIHFQCRRLDRSAHFSTLAIKQNPLLAEAYSNLGNVYKERGQLQEAIEHYRHALRLKPDFIDGYINLAAALVAAGDMEGAVQAYVSALQYNPDLYCVRSDLGNLLKALGRLEEAKACYLKAIETQPNFAVAWSNLGCVFNAQGEIWLAIHHFEKAVTLDPNFLDAYINLGNVLKEARIFDRAVAAYLRALSLSPNHAVVHGNLACVYYEQGLIDLAIDTYRRAIELQPHFPDAYCNLANALKEKGSVAEAEDCYNTALRLCPTHADSLNNLANIKREQGNIEEAVRLYRKALEVFPEFAAAHSNLASVLQQQGKLQEALMHYKEAIRISPTFADAYSNMGNTLKEMQDVQGALQCYTRAIQINPAFADAHSNLASIHKDSGNIPEAIASYRTALKLKPDFPDAYCNLAHCLQIVCDWTDYDERMKKLVSIVADQLEKNRLPSVHPHHSMLYPLSHGFRKAIAERHGNLCLDKINVLHKPPYEHPKDLKLSDGRLRVGYVSSDFGNHPTSHLMQSIPGMHNPDKFEVFCYALSPDDGTNFRVKVMAEANHFIDLSQIPCNGKAADRIHQDGIHILVNMNGYTKGARNELFALRPAPIQAMWLGYPGTSGALFMDYIITDQETSPAEVAEQYSEKLAYMPHTFFIGDHANMFPHLKKKAVIDFKSNGHIYDNRIVLNGIDLKAFLDSLPDVKIVKMKCPDGGDNADSSNTALNMPVIPMNTIAEAVIEMINRGQIQITINGFSISNGLATTQINNKAATGEEVPRTIIVTTRSQYGLPEDAIVYCNFNQLYKIDPSTLQMWANILKRVPNSVLWLLRFPAVGEPNIQQYAQNMGLPQNRIIFSPVAPKEEHVRRGQLADVCLDTPLCNGHTTGMDVLWAGTPMVTMPGETLASRVAASQLTCLGCLELIAKNRQEYEDIAVKLGTDLEYLKKVRGKVWKQRISSPLFNTKQYTMELERLYLQMWEHYAAGNKPDHMIKPVEVTESA
For the molecule B1, the binding entry is reported as “binds”.
